Experimental data published in article PMC4476799, “Englerin A Agonizes the TRPC4/C5 Cation Channels to Inhibit Tumor Cell Line Proliferation” (PLoS ONE, 2015).
This continues a long series; more values of the same kind are listed elsewhere.

System: cancer cell lines from the cancer cell line encyclopedia (CCLE)
Assay: Cell line profiling (CLiP) proliferation experiment
Assay type: cell-based
Parameters: ACTIVITY_AREA: scale not given here; AMAX: unit not given here
Method: Compound profiling experiment and data analysis was performed as previously described. Data was imported and plotted using the Tibco Spotfire DXP application. Lines were categorized as sensitive, intermediate and refractory as follows: Amax<-40 & Inflection Point <2 ~ Sensitive, Amax>-20 & Inflection Point >10 ~ Refractory, all else were called Intermediate. Cancer Cell line HG-U133 Plus 2 data was processed and normalized as described. […] Five sets of refractory cell lines were generated from the pool of refractory cell lines trying to match the lineage composition of the set of sensitive cell lines. The limma package was used as previously described to perform the statistical comparison.

[1] = OCI-AML3, haematopoietic_and_lymphoid_tissue, acute_myeloid_leukaemia
[2] = OCI-LY3 (haematopoietic_and_lymphoid_tissue)
[3] = OCI-LY3, haematopoietic_and_lymphoid_tissue, diffuse_large_B_cell_lymphoma
[4] = OCI-LY-19, haematopoietic_and_lymphoid_tissue, diffuse_large_B_cell_lymphoma
[5] = OCI-M1, haematopoietic_and_lymphoid_tissue, acute_myeloid_leukaemia
[6] = OE19, oesophagus, adenocarcinoma
[7] = RL (haematopoietic_and_lymphoid_tissue)
[8] = RS4;11 (haematopoietic_and_lymphoid_tissue)

## CC(C)[C@@]12C[C@@H](O)[C@@](C)(O1)[C@@H]1CC[C@@H](C)[C@H]1[C@@H]2OC(=O)/C=C/c1ccccc1 [Englerin B]
OCI-AML2 cells
  RESPONSE: INTERMEDIATE
[1]
  ACTIVITY_AREA: 39.66
  AMAX: -74.66
  RESPONSE: INTERMEDIATE
OCI-AML3 cells
  ACTIVITY_AREA: 39.66
  AMAX: -74.66
  RESPONSE: INTERMEDIATE
[2]
  ACTIVITY_AREA: 85.76
  AMAX: -88.94
  RESPONSE: INTERMEDIATE
[3]
  ACTIVITY_AREA: 85.76
  AMAX: -88.94
  RESPONSE: INTERMEDIATE
[4]
  ACTIVITY_AREA: 40.8
  AMAX: -90.15
  RESPONSE: INTERMEDIATE
OCI-LY-19 cells
  ACTIVITY_AREA: 40.8
  AMAX: -90.15
  RESPONSE: INTERMEDIATE
[5]
  ACTIVITY_AREA: 42.99
  AMAX: -77.04
  RESPONSE: INTERMEDIATE
OCI-M1 cells
  ACTIVITY_AREA: 42.99
  AMAX: -77.04
  RESPONSE: INTERMEDIATE
OE19 (oesophagus)
  ACTIVITY_AREA: 36.09
  AMAX: -66.7
  RESPONSE: INTERMEDIATE
[6]
  ACTIVITY_AREA: 36.09
  AMAX: -66.7
  RESPONSE: INTERMEDIATE
OMM2.3 (eye)
  ACTIVITY_AREA: 18.16
  AMAX: -44.55
  RESPONSE: INTERMEDIATE
OMM2.5 cells
  ACTIVITY_AREA: 0.63
  AMAX: 4.64
  RESPONSE: REFRACTORY
ONCO-DG-1 cells
  ACTIVITY_AREA: 143.78
  AMAX: -75.46
  RESPONSE: INTERMEDIATE
OS-RC-2 cells
  ACTIVITY_AREA: 15.73
  AMAX: -35.15
  RESPONSE: INTERMEDIATE
OUMS-23 cells
  ACTIVITY_AREA: 39.54
  AMAX: -76.24
  RESPONSE: INTERMEDIATE
OV7 cells
  ACTIVITY_AREA: 174.64
  AMAX: -34.89
  RESPONSE: INTERMEDIATE
OV56 cells
  ACTIVITY_AREA: 34.53
  AMAX: -42.75
  RESPONSE: INTERMEDIATE
OV-90 cells
  ACTIVITY_AREA: 32.55
  AMAX: -42.84
  RESPONSE: INTERMEDIATE
OVCAR-4 cells
  ACTIVITY_AREA: 59.14
  AMAX: -50.24
  RESPONSE: INTERMEDIATE
OVCAR-8 cells
  ACTIVITY_AREA: 57.78
  AMAX: -69.26
  RESPONSE: INTERMEDIATE
OVISE cells
  ACTIVITY_AREA: 51.17
  AMAX: -68.44
  RESPONSE: INTERMEDIATE
OVSAHO cells
  ACTIVITY_AREA: 17.26
  AMAX: -60.32
  RESPONSE: INTERMEDIATE
P3HR-1 cells
  ACTIVITY_AREA: 71.41
  AMAX: -54.24
  RESPONSE: INTERMEDIATE
P12-ICHIKAWA cells
  ACTIVITY_AREA: 32.54
  AMAX: -67.41
  RESPONSE: INTERMEDIATE
P31/FUJ cells
  ACTIVITY_AREA: 32.81
  AMAX: -79.81
  RESPONSE: INTERMEDIATE
PANC-1 cells
  ACTIVITY_AREA: 38.24
  AMAX: -57.06
  RESPONSE: INTERMEDIATE
PC-3 cells
  ACTIVITY_AREA: 27.62
  AMAX: -56.65
  RESPONSE: INTERMEDIATE
PC-14 cells
  ACTIVITY_AREA: 53.2
  AMAX: -60.86
  RESPONSE: INTERMEDIATE
PE/CA-PJ41 (clone D2) cells
  ACTIVITY_AREA: 24.88
  AMAX: -57.93
  RESPONSE: INTERMEDIATE
PEER cells
  ACTIVITY_AREA: 70.62
  AMAX: -84.18
  RESPONSE: INTERMEDIATE
PF-382 cells
  ACTIVITY_AREA: 21.49
  AMAX: -65.49
  RESPONSE: INTERMEDIATE
PL-21 cells
  ACTIVITY_AREA: 24.72
  AMAX: -72.2
  RESPONSE: INTERMEDIATE
PLC/PRF/5 (liver)
  ACTIVITY_AREA: 81.8
  AMAX: -62.62
  RESPONSE: INTERMEDIATE
PSN1 cells
  ACTIVITY_AREA: 48.4
  AMAX: -50.26
  RESPONSE: INTERMEDIATE
Panc 02.03 cells
  ACTIVITY_AREA: 33.74
  AMAX: -6.12
  RESPONSE: REFRACTORY
Panc 03.27 cells
  ACTIVITY_AREA: 32.48
  AMAX: -68.65
  RESPONSE: INTERMEDIATE
Panc 04.03 cells
  ACTIVITY_AREA: 25.22
  AMAX: -42.01
  RESPONSE: INTERMEDIATE
Panc 10.05 cells
  ACTIVITY_AREA: 44.86
  AMAX: -68.86
  RESPONSE: INTERMEDIATE
RCC10RGB cells
  ACTIVITY_AREA: 23.96
  AMAX: -33.3
  RESPONSE: INTERMEDIATE
RCH-ACV cells
  ACTIVITY_AREA: 21.26
  AMAX: -65
  RESPONSE: INTERMEDIATE
RD cells
  ACTIVITY_AREA: 44.05
  AMAX: -26.78
  RESPONSE: INTERMEDIATE
REC-1 cells
  ACTIVITY_AREA: 20.74
  AMAX: -85.12
  RESPONSE: INTERMEDIATE
RERF-LC-AI cells
  ACTIVITY_AREA: 24.39
  AMAX: -47.09
  RESPONSE: INTERMEDIATE
RH-18 cells
  ACTIVITY_AREA: 79.38
  AMAX: -16.44
  RESPONSE: REFRACTORY
RH-41 (soft_tissue)
  ACTIVITY_AREA: 42.17
  AMAX: -95.73
  RESPONSE: INTERMEDIATE
RI-1 cells
  ACTIVITY_AREA: 98.96
  AMAX: -92.55
  RESPONSE: INTERMEDIATE
RKN (soft_tissue)
  ACTIVITY_AREA: 25.89
  AMAX: -49.43
  RESPONSE: INTERMEDIATE
RKO (large_intestine)
  ACTIVITY_AREA: 25.58
  AMAX: -79.57
  RESPONSE: INTERMEDIATE
[7]
  ACTIVITY_AREA: 38.44
  AMAX: -90.86
  RESPONSE: INTERMEDIATE
RMUG-S (ovary)
  ACTIVITY_AREA: 7.3
  AMAX: 2.82
  RESPONSE: REFRACTORY
RPMI 8226 cells
  ACTIVITY_AREA: 43
  AMAX: -80.8
  RESPONSE: INTERMEDIATE
RPMI-7951 (skin)
  ACTIVITY_AREA: 38.85
  AMAX: -60.36
  RESPONSE: INTERMEDIATE
RPMI-8402 cells
  ACTIVITY_AREA: 70.19
  AMAX: -61.1
  RESPONSE: INTERMEDIATE
[8]
  ACTIVITY_AREA: 34.25
  AMAX: -73.99
  RESPONSE: INTERMEDIATE
RT-112 cells
  ACTIVITY_AREA: 66.59
  AMAX: -78.07
  RESPONSE: INTERMEDIATE
RVH-421 cells
  ACTIVITY_AREA: 25.69
  AMAX: -41.39
  RESPONSE: INTERMEDIATE
Raji cells
  ACTIVITY_AREA: 46.45
  AMAX: -92.06
  RESPONSE: INTERMEDIATE
